The results in this text go back to PMC11499603.

The target in the experiment is microtubules (human (endogenous in H520)). The experiment is described as follows: co-sedimentation; MT co-sedimentation from lysates of H520^NC, H520^VASH2 and H520^VASH2-mut cells; 80 mM PIPES, 1 mM EGTA, 1 mM MgCl2, pH 6.9, 1 mM GTP, 1 mM DTT, 1% NP40; taxol (2 μM) 30 min 37 °C or nocodazole (1 μM) 30 min 4 °C; 100000 × g through a 10% sucrose cushion; western blotting of supernatant and pellet. A general note: A western blot detects proteins with antibodies after separation by electrophoresis.

Results are given in words; binding and its absence hold for the method and conditions named. Binding seen in cells or lysates may run through a third protein. Binding calls can cover weak binding; strength is not graded here.

B1: kinesin family member 3C (protein, UniProt O14782 1-793)
chain: MASKTKASEALKVVARCRPLSRKEEAAGHEQILTMDVKLGQVTLRNPRAAPGELPKTFTFDAVYDASSKQADLYDETVRPLIDSVLQGFNGTVFAYGQTGTGKTYTMQGTWVEPELRGVIPNAFEHIFTHISRSQNQQYLVRASYLEIYQEEIRDLLSKEPGKRLELKENPETGVYIKDLSSFVTKNVKEIEHVMNLGNQTRAVGSTHMNEVSSRSHAIFIITVECSERGSDGQDHIRVGKLNLVDLAGSERQNKAGPNTAGGAATPSSGGGGGGGGSGGGAGGERPKEASKINLSLSALGNVIAALAGNRSTHIPYRDSKLTRLLQDSLGGNAKTIMVATLGPASHSYDESLSTLRFANRAKNIKNKPRVNEDPKDTLLREFQEEIARLKAQLEKRGMLGKRPRRKSSRRKKAVSAPPGYPEGPVIEAWVAEEEDDNNNNHRPPQPILESALEKNMENYLQEQKERLEEEKAAIQDDRSLVSEEKQKLLEEKEKMLEDLRREQQATELLAAKYKAMESKLLIGGRNIMDHTNEQQKMLELKRQEIAEQKRREREMQQEMMLRDEETMELRGTYTSLQQEVEVKTKKLKKLYAKLQAVKAEIQDQHDEYIRVRQDLEEAQNEQTRELKLKYLIIENFIPPEEKNKIMNRLFLDCEEEQWKFQPLVPAGVSSSQMKKRPTSAVGYKRPISQYARVAMAMGSHPRYRAENIMFLELDVSPPAVFEMEFSHDQEQDPRALHMERLMRLDSFLERPSTSKVRKSRSWCQSPQRPPPSTTHASLASASLRPATVADHE
Consider B1, for which the binding entry is listed as “binds”.
